The structures appear in SMILES notation. This is one part of the list. Entries with a potency or affinity are not part of this list.

For this assay, the system named is Acinetobacter baumannii. The following applies: Concentration 32 ug.mL-1; ASSAY_TEST Inhibition of Bacterial Growth; detection method Absorption (OD600); MEDIA CAMHB; plate type 384well; NBS; CORNING #3640; time 18 hr.
For orientation: Inhibition means the change of the read-out against control, counted positive when it falls. For `COc1cccc2c1CCC(=Cc1ccco1)C2=O`, the Inhibition is 3.07%. The result for `COc1ccc2c(c1)C(=O)C(=Cc1ccoc1)CC2` reads -3.92%; that for `COc1cc2c(cc1OC)C(=O)C(=Cc1ccco1)CC2`, -3.09%; that for `Cc1ccc(C=C2CN(C(=O)OC(C)(C)C)C/C(=C\c3ccc(C)cc3C)C2=O)c(C)c1`, -11.33%. For `COc1ccc2c(c1)CCC(=Cc1ccc(OC)nc1)C2=O`, the Inhibition was 3.41%. The result for `CC(C)(C)OC(=O)N1CC(=Cc2ccco2)C(=O)/C(=C/c2ccco2)C1` reads -0.53%; that for `COc1ccc2c(c1)C(=O)C(=Cc1cnccc1OC)CC2`, -6.71%; that for `COc1cccc2c1CCC(=Cc1ccoc1)C2=O`, -6.87%.

`COc1ccc2c(c1)C(=O)C(=Cc1cccnc1)CC2`: the Inhibition is -4%. The result for `COc1ccc2c(c1)C(=O)C(=Cc1cncc(Br)c1)CC2` reads 1.66%. The result for `COc1ccc2c(c1)CCC(=Cc1ccncc1)C2=O` reads 1%. The result for `COc1ccc2c(c1)C(=O)C(=Cc1ccccn1)CC2` reads 2.72%. Regarding `COc1ccc2c(c1)C(=O)C(=Cc1cccnc1Cl)CC2.Cl`, the Inhibition is given as 0.91%. The result for `COc1ccc2c(c1)C(=O)C(=Cc1ccco1)CC2` reads -0.23%. As to `COc1ccc2c(c1)CCC(=Cc1cccnc1)C2=O`, the Inhibition is on record as 6.33%. The result for `COc1ccc(/C=C/C(=O)c2ccc(OCc3ccc(Br)cc3)cc2)cc1OC` reads -16.28%; that for `COc1cc2c(cc1OC)C(=O)C(=Cc1ccoc1)CC2`, -5.62%; that for `COc1ccc2c(c1)CCC(=Cc1ccoc1)C2=O`, 1.83%. With `COc1ccc2c(c1)CCC(=Cc1cccnc1Br)C2=O` the figure was -2.26%; with `COc1ccc2c(c1)C(=O)C(=Cc1cccnc1Cl)CC2`, -0.01%; with `COc1ccc2c(c1)C(=O)C(=Cc1cccnc1OC)CC2`, -2.61%.

As to `COc1ccc2c(c1)CCC(=Cc1cccnc1Cl)C2=O`, the Inhibition is -4.35%. The result for `COc1ccc2c(c1)CCC(=Cc1cnccc1OC)C2=O` reads -5.38%; that for `COc1ccc2c(c1)C(O)C(=Cc1cccnc1Cl)CC2` (stereo unspecified), 1.16%; that for `COc1ccc2c(c1)C(=O)C(=Cc1cccc(C=C3CCc4ccc(OC)cc4C3=O)c1)CC2`, -5.46%. On to `COc1ccc2c(c1)CCC(=Cc1ccccn1)C2=O`, for which the Inhibition worked out at 2.14%. With `COc1ccc2c(c1)CCC(=Cc1cncc(Br)c1)C2=O` the figure was -2.32%; with `CC(C)(C)OC(=O)N1CC(=Cc2ccoc2)C(=O)/C(=C/c2ccoc2)C1`, -7.55%; with `COc1ccc2c(c1)CCC(=Cc1ccco1)C2=O`, 5.68%. The result for `COc1ccc2c(c1)C(=O)C(=Cc1cccnc1Br)CC2` reads 0.79%; that for `COc1cccc2c1CCC(=Cc1cccc(C=C3CCc4c(OC)cccc4C3=O)c1)C2=O`, -17.81%.

Source of the values: ChEMBL document CHEMBL4513147, “CO-ADD screening of Armstrong State University (GA, USA) compounds”.
